Our source for the log2 fold change values is the supplement of paper PMC10849652.

Chains of the proteins cited; added tags and fusions are not shown. Lines headed by an entry give the natural chain unless they say otherwise; changes in a name come on top.
UniProt Q16698: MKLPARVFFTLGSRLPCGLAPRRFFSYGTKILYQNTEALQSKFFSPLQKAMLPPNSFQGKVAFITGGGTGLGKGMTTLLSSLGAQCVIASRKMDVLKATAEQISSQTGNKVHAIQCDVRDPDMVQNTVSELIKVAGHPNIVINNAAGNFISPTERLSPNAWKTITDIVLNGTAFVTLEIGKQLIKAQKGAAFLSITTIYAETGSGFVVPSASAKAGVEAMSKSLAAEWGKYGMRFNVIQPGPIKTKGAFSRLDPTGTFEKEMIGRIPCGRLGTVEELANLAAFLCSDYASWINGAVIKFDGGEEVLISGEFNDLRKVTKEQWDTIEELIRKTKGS
UniProt P30046: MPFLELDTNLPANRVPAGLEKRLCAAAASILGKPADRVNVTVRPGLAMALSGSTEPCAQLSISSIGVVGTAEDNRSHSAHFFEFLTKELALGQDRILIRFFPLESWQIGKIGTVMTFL
UniProt Q15700, whole entry, looked up: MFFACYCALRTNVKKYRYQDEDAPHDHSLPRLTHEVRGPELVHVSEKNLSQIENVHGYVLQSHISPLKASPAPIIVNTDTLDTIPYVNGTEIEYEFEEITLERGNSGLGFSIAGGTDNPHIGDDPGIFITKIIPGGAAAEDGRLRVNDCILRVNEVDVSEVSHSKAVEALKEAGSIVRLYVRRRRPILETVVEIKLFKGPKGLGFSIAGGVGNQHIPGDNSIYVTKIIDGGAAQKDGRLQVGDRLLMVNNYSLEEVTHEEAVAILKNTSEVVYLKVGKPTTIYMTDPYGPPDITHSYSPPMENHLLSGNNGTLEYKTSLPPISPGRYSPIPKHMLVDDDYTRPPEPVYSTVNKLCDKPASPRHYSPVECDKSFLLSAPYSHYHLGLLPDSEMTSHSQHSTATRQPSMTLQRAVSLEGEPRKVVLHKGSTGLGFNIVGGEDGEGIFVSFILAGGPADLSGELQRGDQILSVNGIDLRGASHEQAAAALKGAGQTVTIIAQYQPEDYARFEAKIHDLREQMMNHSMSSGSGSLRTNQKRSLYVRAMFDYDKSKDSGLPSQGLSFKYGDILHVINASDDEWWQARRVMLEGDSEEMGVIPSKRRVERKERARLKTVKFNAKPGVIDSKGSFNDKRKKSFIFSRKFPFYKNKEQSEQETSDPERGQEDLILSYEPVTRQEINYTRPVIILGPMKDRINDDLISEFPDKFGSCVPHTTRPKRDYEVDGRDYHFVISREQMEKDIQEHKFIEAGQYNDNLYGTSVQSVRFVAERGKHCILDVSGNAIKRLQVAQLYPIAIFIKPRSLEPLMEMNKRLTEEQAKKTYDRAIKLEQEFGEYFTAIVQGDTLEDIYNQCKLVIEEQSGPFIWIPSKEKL
UniProt Q8IWF6: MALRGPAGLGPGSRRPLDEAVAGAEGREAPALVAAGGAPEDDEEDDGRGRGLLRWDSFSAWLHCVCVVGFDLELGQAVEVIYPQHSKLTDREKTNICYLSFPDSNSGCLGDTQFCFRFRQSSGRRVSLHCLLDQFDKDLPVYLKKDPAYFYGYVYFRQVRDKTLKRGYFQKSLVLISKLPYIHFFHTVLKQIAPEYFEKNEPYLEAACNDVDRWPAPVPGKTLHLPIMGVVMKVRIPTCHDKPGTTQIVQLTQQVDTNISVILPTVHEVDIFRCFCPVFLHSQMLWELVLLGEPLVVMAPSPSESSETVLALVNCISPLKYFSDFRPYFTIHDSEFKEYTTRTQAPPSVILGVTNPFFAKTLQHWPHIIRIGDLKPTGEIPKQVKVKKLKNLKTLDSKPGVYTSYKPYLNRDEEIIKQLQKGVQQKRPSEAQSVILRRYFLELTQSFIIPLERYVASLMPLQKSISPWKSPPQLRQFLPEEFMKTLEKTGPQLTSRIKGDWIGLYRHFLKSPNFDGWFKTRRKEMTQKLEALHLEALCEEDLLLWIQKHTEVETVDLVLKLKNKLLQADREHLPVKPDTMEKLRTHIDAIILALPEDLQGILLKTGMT
UniProt Q08211, whole entry, looked up: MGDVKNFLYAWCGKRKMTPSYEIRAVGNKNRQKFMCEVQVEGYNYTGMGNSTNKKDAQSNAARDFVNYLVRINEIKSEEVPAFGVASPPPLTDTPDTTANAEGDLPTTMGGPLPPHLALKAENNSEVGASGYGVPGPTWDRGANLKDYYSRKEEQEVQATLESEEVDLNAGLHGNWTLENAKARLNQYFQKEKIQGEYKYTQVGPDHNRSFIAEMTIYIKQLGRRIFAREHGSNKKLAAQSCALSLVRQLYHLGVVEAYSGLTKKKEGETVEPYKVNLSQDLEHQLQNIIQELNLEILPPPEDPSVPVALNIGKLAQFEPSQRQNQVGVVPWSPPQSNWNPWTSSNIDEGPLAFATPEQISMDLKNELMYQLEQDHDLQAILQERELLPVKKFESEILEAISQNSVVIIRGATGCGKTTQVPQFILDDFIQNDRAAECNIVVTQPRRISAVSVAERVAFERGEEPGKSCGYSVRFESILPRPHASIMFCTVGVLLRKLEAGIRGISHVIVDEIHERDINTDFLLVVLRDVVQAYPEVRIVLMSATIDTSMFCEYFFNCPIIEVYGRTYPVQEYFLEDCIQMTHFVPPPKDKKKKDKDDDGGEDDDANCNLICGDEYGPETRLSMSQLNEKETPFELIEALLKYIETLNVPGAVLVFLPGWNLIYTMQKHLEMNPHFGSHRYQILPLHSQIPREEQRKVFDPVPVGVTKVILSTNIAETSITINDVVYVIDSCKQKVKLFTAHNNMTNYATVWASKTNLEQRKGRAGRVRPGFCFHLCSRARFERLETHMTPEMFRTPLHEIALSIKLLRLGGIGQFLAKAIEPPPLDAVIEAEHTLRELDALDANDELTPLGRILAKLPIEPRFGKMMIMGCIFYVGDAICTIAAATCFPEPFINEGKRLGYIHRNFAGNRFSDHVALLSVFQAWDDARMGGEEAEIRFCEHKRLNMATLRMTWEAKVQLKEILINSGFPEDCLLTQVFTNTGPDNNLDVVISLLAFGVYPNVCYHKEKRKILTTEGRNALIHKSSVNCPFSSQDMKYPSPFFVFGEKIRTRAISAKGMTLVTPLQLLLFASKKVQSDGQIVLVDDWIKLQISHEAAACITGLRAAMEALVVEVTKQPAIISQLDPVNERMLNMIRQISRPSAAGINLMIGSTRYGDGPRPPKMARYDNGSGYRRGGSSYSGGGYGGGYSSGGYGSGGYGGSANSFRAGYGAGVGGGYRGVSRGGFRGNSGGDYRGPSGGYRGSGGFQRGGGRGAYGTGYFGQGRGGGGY
UniProt Q9Y2L1: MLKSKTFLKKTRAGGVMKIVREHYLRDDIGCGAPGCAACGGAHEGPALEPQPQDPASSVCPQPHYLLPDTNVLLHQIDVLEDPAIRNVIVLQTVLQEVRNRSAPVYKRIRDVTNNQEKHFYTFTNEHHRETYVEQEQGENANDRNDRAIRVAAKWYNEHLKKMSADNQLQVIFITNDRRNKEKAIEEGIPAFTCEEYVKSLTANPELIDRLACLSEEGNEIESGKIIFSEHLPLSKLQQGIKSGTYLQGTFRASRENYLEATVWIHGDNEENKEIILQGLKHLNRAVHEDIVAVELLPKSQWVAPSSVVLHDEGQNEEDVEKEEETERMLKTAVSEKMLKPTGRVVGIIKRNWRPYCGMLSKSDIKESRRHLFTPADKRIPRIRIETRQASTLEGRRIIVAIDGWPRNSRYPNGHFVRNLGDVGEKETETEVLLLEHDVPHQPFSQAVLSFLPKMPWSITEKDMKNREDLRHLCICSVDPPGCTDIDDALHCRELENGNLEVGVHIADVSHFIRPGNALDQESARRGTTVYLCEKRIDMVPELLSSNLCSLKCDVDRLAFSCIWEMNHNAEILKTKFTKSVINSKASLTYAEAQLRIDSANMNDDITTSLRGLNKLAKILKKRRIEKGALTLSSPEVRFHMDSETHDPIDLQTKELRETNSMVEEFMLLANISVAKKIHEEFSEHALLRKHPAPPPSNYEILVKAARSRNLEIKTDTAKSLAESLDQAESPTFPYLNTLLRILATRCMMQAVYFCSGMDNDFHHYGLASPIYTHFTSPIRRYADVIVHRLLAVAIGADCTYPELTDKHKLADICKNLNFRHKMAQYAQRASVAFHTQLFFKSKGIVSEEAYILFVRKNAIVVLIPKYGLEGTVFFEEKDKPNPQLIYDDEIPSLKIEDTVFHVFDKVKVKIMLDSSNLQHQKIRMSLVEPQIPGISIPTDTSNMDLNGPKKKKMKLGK
UniProt Q7Z4W1: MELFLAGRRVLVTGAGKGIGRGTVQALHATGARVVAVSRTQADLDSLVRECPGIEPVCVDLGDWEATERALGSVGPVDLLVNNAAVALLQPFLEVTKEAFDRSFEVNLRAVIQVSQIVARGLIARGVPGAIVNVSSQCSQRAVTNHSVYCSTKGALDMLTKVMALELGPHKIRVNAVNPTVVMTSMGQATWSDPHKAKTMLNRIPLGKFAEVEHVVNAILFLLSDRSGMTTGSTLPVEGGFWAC
UniProt Q8TF46, whole entry, looked up: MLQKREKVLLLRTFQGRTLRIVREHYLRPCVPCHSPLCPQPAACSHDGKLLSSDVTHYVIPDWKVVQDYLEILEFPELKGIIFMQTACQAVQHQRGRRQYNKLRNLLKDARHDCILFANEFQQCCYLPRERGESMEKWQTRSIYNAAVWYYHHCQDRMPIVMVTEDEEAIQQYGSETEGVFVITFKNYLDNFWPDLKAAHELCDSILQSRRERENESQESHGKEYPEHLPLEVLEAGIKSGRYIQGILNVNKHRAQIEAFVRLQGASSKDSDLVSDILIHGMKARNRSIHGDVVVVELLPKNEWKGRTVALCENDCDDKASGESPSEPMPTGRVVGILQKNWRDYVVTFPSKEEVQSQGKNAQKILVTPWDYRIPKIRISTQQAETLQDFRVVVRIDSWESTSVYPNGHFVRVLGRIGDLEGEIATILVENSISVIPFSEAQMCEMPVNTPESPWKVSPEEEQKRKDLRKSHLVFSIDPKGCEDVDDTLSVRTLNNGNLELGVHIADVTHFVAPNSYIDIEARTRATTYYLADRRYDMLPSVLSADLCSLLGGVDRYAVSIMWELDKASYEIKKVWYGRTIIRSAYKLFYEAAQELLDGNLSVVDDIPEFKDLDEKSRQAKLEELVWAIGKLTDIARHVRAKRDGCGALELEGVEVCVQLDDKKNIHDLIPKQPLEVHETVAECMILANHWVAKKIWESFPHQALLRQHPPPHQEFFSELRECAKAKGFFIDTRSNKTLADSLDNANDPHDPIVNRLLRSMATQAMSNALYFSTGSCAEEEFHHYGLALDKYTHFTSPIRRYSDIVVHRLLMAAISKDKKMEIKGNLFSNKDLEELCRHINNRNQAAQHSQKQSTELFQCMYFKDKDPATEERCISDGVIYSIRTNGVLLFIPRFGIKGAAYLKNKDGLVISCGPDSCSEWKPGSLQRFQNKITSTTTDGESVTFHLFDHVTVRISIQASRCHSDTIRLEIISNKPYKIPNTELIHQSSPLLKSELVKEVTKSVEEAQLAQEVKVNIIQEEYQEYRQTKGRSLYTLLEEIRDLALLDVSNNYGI
UniProt Q02127: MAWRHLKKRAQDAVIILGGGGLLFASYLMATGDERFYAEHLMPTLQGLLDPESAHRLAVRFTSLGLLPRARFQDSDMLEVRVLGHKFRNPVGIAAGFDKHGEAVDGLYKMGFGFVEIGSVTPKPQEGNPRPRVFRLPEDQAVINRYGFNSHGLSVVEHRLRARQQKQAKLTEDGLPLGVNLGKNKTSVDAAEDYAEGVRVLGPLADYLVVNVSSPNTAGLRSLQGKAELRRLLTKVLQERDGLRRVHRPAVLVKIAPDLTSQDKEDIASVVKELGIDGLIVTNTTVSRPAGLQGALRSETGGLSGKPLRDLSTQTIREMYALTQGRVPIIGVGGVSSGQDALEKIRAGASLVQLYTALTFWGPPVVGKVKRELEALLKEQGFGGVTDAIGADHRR
UniProt Q7L7V1: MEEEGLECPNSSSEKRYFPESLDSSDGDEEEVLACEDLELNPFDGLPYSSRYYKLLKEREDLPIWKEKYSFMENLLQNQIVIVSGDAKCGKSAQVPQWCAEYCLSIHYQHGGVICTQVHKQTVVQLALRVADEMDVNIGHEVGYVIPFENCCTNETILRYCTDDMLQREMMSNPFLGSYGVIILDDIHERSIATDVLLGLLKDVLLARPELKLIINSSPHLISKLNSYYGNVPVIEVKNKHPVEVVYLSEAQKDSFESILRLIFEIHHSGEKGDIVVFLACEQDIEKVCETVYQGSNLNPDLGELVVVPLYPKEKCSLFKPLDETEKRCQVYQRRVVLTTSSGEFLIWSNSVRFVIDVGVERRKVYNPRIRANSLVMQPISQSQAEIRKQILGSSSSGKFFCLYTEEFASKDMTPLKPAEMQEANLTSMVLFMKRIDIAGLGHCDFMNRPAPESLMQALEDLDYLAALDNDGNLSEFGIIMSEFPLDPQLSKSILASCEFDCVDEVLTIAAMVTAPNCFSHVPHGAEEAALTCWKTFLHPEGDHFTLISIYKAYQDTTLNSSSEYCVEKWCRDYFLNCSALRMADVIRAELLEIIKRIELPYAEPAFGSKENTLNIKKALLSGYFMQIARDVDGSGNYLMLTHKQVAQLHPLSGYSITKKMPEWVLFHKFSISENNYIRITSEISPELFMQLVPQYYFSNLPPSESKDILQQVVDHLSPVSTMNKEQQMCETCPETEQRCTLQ

This is one part of the list.

Compound in the assay: c1cn2cc(-c3ccc4cn[nH]c4c3)nc(Nc3ccc(N4CCOCC4)cc3)c2n1 [entospletinib]
In words: log2 fold change, soluble protein after heating vs DMSO (PISA); higher = thermal stabilisation; K562 cells, 10 uM, 30 min; active = over 0.2 and 3.5 SD of the protein, either way, in both replicates (recomputed). A digest of the protocol:
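Soluble protein was defined as the supernatant after 21,000xg for 90 min. It came from K562 cells at 2×10^6 cells/mL given 10 μM compound for 30 min, heated in aliquots for 3 min across 48°C-58°C, pooled, and extracted in PBS with 0.5% NP-40 at 4°C, and was quantified by TMTpro 16plex LC-MS/MS with equalised channel sums. Thermal stability against control samples, from duplicates, is reported as log2 fold change.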
Consider DIDO1 (UniProt Q9BTC0), for which the log2 fold change is inactive: 0.028.

As for DMAC2 isoform 4 (UniProt Q9NW81), the log2 fold change is inactive: 0.019.

Turning to DECR1 (UniProt Q16698), the log2 fold change is inactive: -0.021.

On to DEK (UniProt P35659), for which the log2 fold change is inactive: -0.035.

In the case of DNAJA2 (UniProt O60884), the log2 fold change is inactive: -0.079.

For the target DDT (UniProt P30046), the log2 fold change was inactive: -0.035.

With DENND4C isoform 7 (UniProt Q5VZ89), the log2 fold change was inactive: -0.198.

Regarding DDI2 isoform 3 (UniProt Q5TDH0), the log2 fold change was inactive: 0.032.

Turning to DLG2 isoform 2 (UniProt Q15700), the log2 fold change was inactive: 0.079.

For DDX18 (UniProt Q9NVP1), the log2 fold change is inactive: 0.05.

With DDX20 (UniProt Q9UHI6), the log2 fold change is inactive: 0.193.

In the case of DDX41 (UniProt Q9UJV9), the log2 fold change is inactive: -0.055.

Take DDRGK1 (UniProt Q96HY6): the log2 fold change was inactive: 0.01.

Regarding DENND6A (UniProt Q8IWF6), the log2 fold change was inactive: 0.002.

Take DHX9 (UniProt Q08211): the log2 fold change is inactive: -0.146.

On to DGCR2 (UniProt P98153), for which the log2 fold change is inactive: 0.021.

Consider DIS3 (UniProt Q9Y2L1), for which the log2 fold change is inactive: -0.095.

As for DESI2 (UniProt Q9BSY9), the log2 fold change was inactive: -0.023.

On to DCXR (UniProt Q7Z4W1), for which the log2 fold change was inactive: -0.012.

For DGCR8 (UniProt Q8WYQ5), the log2 fold change is inactive: -0.085.

DIS3L (UniProt Q8TF46): the log2 fold change is inactive: 0.115.

For DERA (UniProt Q9Y315), the log2 fold change is inactive: -0.038.

In the case of DGUOK (UniProt Q16854), the log2 fold change is inactive: -0.022.

Regarding DHODH (UniProt Q02127), the log2 fold change is inactive: 0.01.

For DDAH1 (UniProt O94760), the log2 fold change is inactive: -0.092.

DHX8 (UniProt Q14562): the log2 fold change is inactive: 0.022.

On to DLST (UniProt P36957), for which the log2 fold change was inactive: 0.059.

Consider DHX32 (UniProt Q7L7V1), for which the log2 fold change was inactive: 0.032.

For DDX49 (UniProt Q9Y6V7), the log2 fold change is inactive: 0.112.
